Our source for the log2 fold change values is the supplement of paper PMC10849652.

Chains of the proteins cited; added tags and fusions are not shown. Lines headed by an entry give the natural chain unless they say otherwise; changes in a name come on top.
UniProt P20742, whole entry, looked up: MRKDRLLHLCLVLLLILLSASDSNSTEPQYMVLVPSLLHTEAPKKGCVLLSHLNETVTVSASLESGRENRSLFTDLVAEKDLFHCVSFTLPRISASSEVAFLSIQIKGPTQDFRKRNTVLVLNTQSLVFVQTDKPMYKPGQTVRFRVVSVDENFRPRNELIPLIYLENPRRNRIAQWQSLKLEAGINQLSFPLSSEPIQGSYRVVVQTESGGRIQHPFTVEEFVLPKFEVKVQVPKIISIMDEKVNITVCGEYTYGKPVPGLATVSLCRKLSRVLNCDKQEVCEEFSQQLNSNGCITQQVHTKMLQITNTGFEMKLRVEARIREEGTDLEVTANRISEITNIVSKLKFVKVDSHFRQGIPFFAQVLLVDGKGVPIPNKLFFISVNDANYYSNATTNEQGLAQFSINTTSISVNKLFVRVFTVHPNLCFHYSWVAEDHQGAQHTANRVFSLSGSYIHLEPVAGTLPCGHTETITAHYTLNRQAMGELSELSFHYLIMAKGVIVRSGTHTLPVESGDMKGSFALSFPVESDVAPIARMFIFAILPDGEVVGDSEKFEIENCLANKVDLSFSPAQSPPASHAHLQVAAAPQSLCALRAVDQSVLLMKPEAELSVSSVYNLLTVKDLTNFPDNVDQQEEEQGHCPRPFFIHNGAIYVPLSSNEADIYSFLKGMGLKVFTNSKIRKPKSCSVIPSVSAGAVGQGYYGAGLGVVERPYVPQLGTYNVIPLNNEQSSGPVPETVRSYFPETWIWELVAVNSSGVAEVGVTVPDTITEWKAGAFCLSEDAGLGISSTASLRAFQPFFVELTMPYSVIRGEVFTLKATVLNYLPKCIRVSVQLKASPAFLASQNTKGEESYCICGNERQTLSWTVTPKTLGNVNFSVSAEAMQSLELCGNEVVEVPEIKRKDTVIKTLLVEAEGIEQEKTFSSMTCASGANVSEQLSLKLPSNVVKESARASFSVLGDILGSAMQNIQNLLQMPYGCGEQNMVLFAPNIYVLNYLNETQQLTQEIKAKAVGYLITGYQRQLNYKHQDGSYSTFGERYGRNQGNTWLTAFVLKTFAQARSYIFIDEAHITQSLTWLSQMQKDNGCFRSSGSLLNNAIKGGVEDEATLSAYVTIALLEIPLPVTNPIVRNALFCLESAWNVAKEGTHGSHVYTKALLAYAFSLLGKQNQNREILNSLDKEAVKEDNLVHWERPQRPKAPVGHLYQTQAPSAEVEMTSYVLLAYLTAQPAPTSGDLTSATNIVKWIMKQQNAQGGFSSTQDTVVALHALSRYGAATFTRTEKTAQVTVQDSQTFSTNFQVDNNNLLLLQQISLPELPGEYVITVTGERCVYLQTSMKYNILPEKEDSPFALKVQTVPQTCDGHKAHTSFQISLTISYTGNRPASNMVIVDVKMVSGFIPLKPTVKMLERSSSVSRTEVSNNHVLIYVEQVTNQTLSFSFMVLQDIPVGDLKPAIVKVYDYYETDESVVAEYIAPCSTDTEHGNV
UniProt P47897: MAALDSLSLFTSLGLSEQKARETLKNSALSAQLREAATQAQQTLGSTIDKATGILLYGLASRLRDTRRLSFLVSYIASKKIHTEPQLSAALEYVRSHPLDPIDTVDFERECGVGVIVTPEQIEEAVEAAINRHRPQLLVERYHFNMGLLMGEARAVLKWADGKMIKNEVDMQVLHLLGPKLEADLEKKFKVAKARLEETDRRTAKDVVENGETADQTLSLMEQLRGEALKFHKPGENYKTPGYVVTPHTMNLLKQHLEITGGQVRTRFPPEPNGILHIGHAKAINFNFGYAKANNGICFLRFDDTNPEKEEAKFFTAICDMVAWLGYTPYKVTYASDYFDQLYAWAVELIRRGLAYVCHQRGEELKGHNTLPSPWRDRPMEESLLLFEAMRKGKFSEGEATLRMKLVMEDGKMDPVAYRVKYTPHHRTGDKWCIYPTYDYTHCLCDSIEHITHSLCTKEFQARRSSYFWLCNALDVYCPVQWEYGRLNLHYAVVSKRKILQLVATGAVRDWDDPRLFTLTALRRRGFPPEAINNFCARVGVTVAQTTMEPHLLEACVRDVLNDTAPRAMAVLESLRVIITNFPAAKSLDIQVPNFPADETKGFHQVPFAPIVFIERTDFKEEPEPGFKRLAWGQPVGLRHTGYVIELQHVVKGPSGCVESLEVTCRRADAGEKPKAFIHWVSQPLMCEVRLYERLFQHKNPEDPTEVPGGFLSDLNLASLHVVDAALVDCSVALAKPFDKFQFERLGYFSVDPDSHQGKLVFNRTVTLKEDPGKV
UniProt Q8TAA3: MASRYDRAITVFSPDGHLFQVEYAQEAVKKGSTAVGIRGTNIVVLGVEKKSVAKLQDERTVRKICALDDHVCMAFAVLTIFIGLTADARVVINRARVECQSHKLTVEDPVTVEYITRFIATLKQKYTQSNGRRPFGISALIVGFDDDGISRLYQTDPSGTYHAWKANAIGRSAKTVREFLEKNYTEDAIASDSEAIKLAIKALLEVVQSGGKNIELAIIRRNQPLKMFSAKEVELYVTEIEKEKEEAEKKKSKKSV
UniProt Q9H939: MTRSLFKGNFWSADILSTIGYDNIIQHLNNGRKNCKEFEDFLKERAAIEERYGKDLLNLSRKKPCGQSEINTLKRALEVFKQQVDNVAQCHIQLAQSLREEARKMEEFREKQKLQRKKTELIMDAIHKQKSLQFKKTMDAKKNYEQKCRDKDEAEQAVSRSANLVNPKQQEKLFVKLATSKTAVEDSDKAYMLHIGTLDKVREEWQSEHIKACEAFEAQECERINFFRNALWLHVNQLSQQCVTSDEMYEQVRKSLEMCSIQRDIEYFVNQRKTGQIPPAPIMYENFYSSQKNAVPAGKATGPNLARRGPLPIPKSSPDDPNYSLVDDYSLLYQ
UniProt P20962: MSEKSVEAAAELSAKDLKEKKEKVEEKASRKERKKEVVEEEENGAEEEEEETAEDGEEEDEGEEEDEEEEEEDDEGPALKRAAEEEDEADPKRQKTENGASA
UniProt Q6PGN9: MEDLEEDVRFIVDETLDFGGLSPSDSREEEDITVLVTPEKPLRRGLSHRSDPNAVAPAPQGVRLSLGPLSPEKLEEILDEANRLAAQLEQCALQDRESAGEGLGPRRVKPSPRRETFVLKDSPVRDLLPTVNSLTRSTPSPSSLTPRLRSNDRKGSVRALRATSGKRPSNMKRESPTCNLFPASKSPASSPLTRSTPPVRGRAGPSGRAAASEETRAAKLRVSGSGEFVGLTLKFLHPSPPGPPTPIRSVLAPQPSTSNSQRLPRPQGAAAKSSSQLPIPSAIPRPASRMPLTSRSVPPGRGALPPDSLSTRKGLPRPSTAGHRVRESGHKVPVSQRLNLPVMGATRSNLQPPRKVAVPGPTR
UniProt Q8TB72: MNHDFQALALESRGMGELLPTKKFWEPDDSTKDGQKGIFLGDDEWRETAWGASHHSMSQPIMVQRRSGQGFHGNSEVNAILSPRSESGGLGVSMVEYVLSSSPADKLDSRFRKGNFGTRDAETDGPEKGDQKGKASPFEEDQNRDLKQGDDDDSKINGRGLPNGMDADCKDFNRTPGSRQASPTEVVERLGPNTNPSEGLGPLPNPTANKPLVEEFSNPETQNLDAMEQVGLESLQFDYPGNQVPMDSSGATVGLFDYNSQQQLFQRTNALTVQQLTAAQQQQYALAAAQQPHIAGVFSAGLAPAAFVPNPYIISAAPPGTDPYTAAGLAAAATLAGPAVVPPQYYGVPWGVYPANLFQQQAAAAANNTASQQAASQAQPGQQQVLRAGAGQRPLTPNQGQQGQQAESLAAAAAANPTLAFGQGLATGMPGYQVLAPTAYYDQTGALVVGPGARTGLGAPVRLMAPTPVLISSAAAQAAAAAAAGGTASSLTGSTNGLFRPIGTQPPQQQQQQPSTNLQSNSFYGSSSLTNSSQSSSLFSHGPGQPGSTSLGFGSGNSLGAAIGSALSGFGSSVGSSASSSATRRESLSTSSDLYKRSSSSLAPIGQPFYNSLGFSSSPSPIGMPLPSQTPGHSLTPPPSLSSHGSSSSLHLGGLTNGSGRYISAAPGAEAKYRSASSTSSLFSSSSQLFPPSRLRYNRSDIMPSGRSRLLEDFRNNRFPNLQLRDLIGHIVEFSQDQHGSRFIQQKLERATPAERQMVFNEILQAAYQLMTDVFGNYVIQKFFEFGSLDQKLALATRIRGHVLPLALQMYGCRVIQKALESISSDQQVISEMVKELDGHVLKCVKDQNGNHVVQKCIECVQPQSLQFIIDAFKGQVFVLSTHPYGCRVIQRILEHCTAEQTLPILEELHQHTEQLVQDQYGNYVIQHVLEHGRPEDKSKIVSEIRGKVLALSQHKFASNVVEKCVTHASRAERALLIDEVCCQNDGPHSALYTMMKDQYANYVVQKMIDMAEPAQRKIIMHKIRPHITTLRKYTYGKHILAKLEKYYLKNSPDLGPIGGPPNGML
UniProt Q8WU10: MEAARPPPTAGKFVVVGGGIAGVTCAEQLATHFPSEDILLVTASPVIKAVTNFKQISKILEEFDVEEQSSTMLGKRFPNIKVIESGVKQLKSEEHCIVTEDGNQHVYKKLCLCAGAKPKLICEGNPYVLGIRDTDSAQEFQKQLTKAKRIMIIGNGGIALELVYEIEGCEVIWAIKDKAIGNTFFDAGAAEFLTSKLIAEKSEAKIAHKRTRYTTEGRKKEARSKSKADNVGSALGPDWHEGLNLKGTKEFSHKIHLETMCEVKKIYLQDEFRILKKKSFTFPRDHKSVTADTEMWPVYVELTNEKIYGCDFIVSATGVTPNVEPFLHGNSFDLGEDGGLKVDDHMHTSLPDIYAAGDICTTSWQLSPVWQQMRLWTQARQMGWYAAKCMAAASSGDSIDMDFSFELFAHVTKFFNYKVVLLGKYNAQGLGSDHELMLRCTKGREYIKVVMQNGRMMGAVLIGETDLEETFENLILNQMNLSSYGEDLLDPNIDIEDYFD
UniProt O00231, whole entry, looked up: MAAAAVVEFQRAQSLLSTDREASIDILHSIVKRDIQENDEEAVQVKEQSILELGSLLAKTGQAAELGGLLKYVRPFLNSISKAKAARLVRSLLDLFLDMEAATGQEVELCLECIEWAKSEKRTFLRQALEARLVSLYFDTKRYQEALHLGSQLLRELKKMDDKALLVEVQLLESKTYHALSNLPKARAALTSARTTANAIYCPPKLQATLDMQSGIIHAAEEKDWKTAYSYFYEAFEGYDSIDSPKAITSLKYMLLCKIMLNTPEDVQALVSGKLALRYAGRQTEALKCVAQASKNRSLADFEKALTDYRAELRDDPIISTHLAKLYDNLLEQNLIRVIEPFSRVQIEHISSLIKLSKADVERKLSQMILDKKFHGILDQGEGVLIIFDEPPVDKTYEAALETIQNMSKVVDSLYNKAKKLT
UniProt P07602: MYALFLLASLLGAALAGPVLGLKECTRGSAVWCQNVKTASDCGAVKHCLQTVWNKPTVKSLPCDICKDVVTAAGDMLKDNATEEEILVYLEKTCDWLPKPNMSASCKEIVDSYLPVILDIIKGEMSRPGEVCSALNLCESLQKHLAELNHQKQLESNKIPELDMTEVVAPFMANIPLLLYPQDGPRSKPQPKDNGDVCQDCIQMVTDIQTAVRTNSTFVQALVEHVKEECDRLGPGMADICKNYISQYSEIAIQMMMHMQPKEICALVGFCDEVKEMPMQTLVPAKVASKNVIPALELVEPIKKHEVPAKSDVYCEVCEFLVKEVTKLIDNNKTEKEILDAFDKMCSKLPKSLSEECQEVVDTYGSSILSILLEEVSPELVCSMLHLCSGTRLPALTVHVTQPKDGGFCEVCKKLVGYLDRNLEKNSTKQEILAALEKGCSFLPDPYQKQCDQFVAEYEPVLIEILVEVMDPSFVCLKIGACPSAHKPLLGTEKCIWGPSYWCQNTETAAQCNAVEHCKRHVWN
UniProt O00232: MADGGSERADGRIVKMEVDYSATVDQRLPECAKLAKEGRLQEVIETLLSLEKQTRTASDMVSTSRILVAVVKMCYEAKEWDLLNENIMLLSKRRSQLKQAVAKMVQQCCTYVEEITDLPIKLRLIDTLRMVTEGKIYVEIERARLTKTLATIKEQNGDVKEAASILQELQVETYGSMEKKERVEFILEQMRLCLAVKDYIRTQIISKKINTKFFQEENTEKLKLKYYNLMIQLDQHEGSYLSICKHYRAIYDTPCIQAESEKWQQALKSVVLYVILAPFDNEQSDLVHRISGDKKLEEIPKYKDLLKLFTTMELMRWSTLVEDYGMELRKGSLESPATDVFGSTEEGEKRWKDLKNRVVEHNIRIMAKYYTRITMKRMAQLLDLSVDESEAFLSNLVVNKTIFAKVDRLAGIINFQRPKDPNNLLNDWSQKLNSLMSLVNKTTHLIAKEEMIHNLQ
UniProt P49720: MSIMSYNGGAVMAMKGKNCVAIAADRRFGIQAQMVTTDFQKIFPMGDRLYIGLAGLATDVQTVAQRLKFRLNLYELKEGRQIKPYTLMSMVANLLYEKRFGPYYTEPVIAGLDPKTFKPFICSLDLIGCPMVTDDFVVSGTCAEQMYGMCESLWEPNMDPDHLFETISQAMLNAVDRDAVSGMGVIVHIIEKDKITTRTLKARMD

Some of the results follow.

Compound in one test: CC1=C(SC2=C1C(=N[C@H](C3=NN=C(N32)C)CC(=O)N)C4=CC=C(C=C4)Cl)C
Kind of test: log2 fold change, soluble protein after heating vs DMSO (PISA); higher = thermal stabilisation; K562 cells, 10 uM, 30 min; active = over 0.2 and 3.5 SD of the protein, either way, in both replicates (recomputed). Summed up:
(§1)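 Thermal stability values are relative to control samples and come from duplicates. They are expressed as log2 fold changes. For measurement, K562 cells (2×10^6 cells/mL) received 10 μM compound for 30 min, and aliquots were heated for 3 min over 48°C-58°C, pooled, and extracted at 4°C in PBS with 0.5% NP-40. Soluble protein, the supernatant after 21,000xg for 90 min, was quantified by TMTpro 16plex LC-MS/MS with equalised channel sums.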
For the target PTPA (UniProt A6PVN8), the log2 fold change is inactive: 0.011.

In the case of PXK (UniProt Q7Z7A4), the log2 fold change is inactive: 0.04.

Consider PSEN1 (UniProt P49768), for which the log2 fold change is inactive: 0.122.

For the target PSMA7 isoform 2 (UniProt O14818), the log2 fold change is inactive: -0.087.

For the target PSME2 (UniProt Q9UL46), the log2 fold change is inactive: -0.015.

Take PZP (UniProt P20742): the log2 fold change is inactive: -0.046.

With QARS (UniProt P47897), the log2 fold change is inactive: -0.231.

On to PSMA8 (UniProt Q8TAA3), for which the log2 fold change is inactive: 0.014.

Regarding PSTPIP2 (UniProt Q9H939), the log2 fold change was inactive: -0.008.

Regarding PSPC1 (UniProt Q8WXF1), the log2 fold change is inactive: -0.029.

Consider PSMC6 (UniProt P62333), for which the log2 fold change is inactive: -0.087.

For PTGES3 (UniProt Q15185), the log2 fold change is inactive: 0.016.

Take PTTG1 (UniProt O95997): the log2 fold change is inactive: 0.003.

For the target PRUNE1 (UniProt Q86TP1), the log2 fold change was inactive: -0.002.

QSOX2 (UniProt Q6ZRP7): the log2 fold change was inactive: 0.04.

Consider PYGL (UniProt P06737), for which the log2 fold change was inactive: 0.047.

Take PTMS (UniProt P20962): the log2 fold change was inactive: 0.024.

PSRC1 (UniProt Q6PGN9): the log2 fold change was inactive: -0.057.

Take PSMG4 isoform 2 (UniProt Q5JS54): the log2 fold change was inactive: -0.196.

For the target PUM2 (UniProt Q8TB72), the log2 fold change was inactive: 0.002.

Turning to PYROXD1 (UniProt Q8WU10), the log2 fold change was inactive: 0.098.

As to PSMD11 (UniProt O00231), the log2 fold change is inactive: -0.049.

For PSAP isoform 3 (UniProt P07602), the log2 fold change was inactive: 0.024.

Turning to PSMD12 (UniProt O00232), the log2 fold change was inactive: -0.063.

For PSMD6 (UniProt Q15008), the log2 fold change is inactive: -0.088.

In the case of PUF60 isoform 2 (UniProt Q9UHX1), the log2 fold change is inactive: 0.097.

Consider PTDSS2 (UniProt Q9BVG9), for which the log2 fold change was inactive: 0.055.

With PSMA4 (UniProt P25789), the log2 fold change is inactive: -0.039.

As to PSMB3 (UniProt P49720), the log2 fold change is inactive: -0.064.

As to QSOX1 (UniProt O00391), the log2 fold change is inactive: 0.171.

In the case of PUS7 isoform 2 (UniProt Q96PZ0), the log2 fold change is inactive: -0.011.

Consider PTK2B (UniProt Q14289), for which the log2 fold change is inactive: -0.098.

Compound in another test: CC1=C2C(=CC=C1)N=C(N(C2=O)C3=CC=CC=C3C)CN4C=NC5=C(N=CN=C54)N
The test is described as above. Summed up: as §1
Consider PTPA (UniProt A6PVN8), for which the log2 fold change was inactive: 0.001.

Take PXK (UniProt Q7Z7A4): the log2 fold change was inactive: 0.098.

As to PSEN1 (UniProt P49768), the log2 fold change is inactive: 0.081.

Regarding PSMA7 isoform 2 (UniProt O14818), the log2 fold change was inactive: 0.2.

PSME2 (UniProt Q9UL46): the log2 fold change was inactive: -0.049.

For the target PZP (UniProt P20742), the log2 fold change is inactive: 0.103.

QARS (UniProt P47897): the log2 fold change was inactive: -0.035.

For PSMA8 (UniProt Q8TAA3), the log2 fold change was inactive: 0.004.

In the case of PSTPIP2 (UniProt Q9H939), the log2 fold change is inactive: 0.07.

Regarding PSPC1 (UniProt Q8WXF1), the log2 fold change was inactive: 0.038.

Turning to PSMC6 (UniProt P62333), the log2 fold change was inactive: -0.037.

As to PTGES3 (UniProt Q15185), the log2 fold change is inactive: 0.067.

Take PTTG1 (UniProt O95997): the log2 fold change is inactive: 0.014.

For the target PRUNE1 (UniProt Q86TP1), the log2 fold change is inactive: 0.023.

Turning to QSOX2 (UniProt Q6ZRP7), the log2 fold change is inactive: 0.054.

In the case of PYGL (UniProt P06737), the log2 fold change is inactive: 0.026.

Turning to PTMS (UniProt P20962), the log2 fold change is inactive: -0.027.

As for PSRC1 (UniProt Q6PGN9), the log2 fold change was inactive: 0.031.

For PSMG4 isoform 2 (UniProt Q5JS54), the log2 fold change was inactive: -0.087.

For PUM2 (UniProt Q8TB72), the log2 fold change is inactive: 0.046.

For PYROXD1 (UniProt Q8WU10), the log2 fold change was inactive: 0.042.

With PSMD11 (UniProt O00231), the log2 fold change is inactive: -0.053.

PSAP isoform 3 (UniProt P07602): the log2 fold change was inactive: -0.019.

For the target PSMD12 (UniProt O00232), the log2 fold change is inactive: -0.066.

As to PSMD6 (UniProt Q15008), the log2 fold change is inactive: -0.116.

As for PUF60 isoform 2 (UniProt Q9UHX1), the log2 fold change was inactive: -0.312.

With PTDSS2 (UniProt Q9BVG9), the log2 fold change was inactive: 0.067.

Take PSMA4 (UniProt P25789): the log2 fold change is inactive: -0.057.

With PSMB3 (UniProt P49720), the log2 fold change is inactive: -0.044.

As to QSOX1 (UniProt O00391), the log2 fold change was inactive: -0.028.

For the target PUS7 isoform 2 (UniProt Q96PZ0), the log2 fold change is inactive: -0.026.

For PTK2B (UniProt Q14289), the log2 fold change is inactive: 0.194.

Compound in the next test: Cc1sc2c(c1C)C(c1ccc(Cl)cc1)=N[C@@H](CC(=O)OC(C)(C)C)c1nnc(C)n1-2
The description is as above. Summed up:
as §1
For PTPA (UniProt A6PVN8), the log2 fold change is inactive: -0.015.

Consider PXK (UniProt Q7Z7A4), for which the log2 fold change is inactive: 0.011.

Consider PSEN1 (UniProt P49768), for which the log2 fold change was inactive: -0.078.

Turning to PSMA7 isoform 2 (UniProt O14818), the log2 fold change was inactive: 0.186.

As to PSME2 (UniProt Q9UL46), the log2 fold change is inactive: 0.009.

On to PZP (UniProt P20742), for which the log2 fold change was inactive: 0.078.

As for QARS (UniProt P47897), the log2 fold change is inactive: 0.315.

For the target PSMA8 (UniProt Q8TAA3), the log2 fold change is inactive: 0.025.

Regarding PSTPIP2 (UniProt Q9H939), the log2 fold change is inactive: 0.002.

With PSPC1 (UniProt Q8WXF1), the log2 fold change is inactive: -0.032.

On to PSMC6 (UniProt P62333), for which the log2 fold change is inactive: 0.017.

Take PTGES3 (UniProt Q15185): the log2 fold change is inactive: -0.046.

Consider PTTG1 (UniProt O95997), for which the log2 fold change is inactive: 0.004.

Take PRUNE1 (UniProt Q86TP1): the log2 fold change was inactive: 0.

In the case of QSOX2 (UniProt Q6ZRP7), the log2 fold change was inactive: -0.007.

With PYGL (UniProt P06737), the log2 fold change is inactive: 0.006.

As to PTMS (UniProt P20962), the log2 fold change was inactive: -0.023.

In the case of PSRC1 (UniProt Q6PGN9), the log2 fold change was inactive: 0.078.

PSMG4 isoform 2 (UniProt Q5JS54): the log2 fold change was inactive: -0.107.

For the target PUM2 (UniProt Q8TB72), the log2 fold change is inactive: 0.072.

PYROXD1 (UniProt Q8WU10): the log2 fold change was inactive: 0.016.

Consider PSMD11 (UniProt O00231), for which the log2 fold change was inactive: -0.017.

For the target PSAP isoform 3 (UniProt P07602), the log2 fold change was inactive: 0.006.

PSMD12 (UniProt O00232): the log2 fold change was inactive: -0.045.

As for PSMD6 (UniProt Q15008), the log2 fold change is inactive: -0.006.

As for PUF60 isoform 2 (UniProt Q9UHX1), the log2 fold change was inactive: -0.146.

Turning to PTDSS2 (UniProt Q9BVG9), the log2 fold change is inactive: -0.078.

Regarding PSMA4 (UniProt P25789), the log2 fold change is inactive: 0.005.

Regarding PSMB3 (UniProt P49720), the log2 fold change is inactive: -0.029.

Turning to QSOX1 (UniProt O00391), the log2 fold change is inactive: 0.018.

With PUS7 isoform 2 (UniProt Q96PZ0), the log2 fold change is inactive: 0.013.

PTK2B (UniProt Q14289): the log2 fold change is inactive: 0.
